The text below walks through data of patent publication US20030027218A1 (priority 1997, published 2003).

Data set [1] is described as follows: general procedure: Fmoc solid-phase peptide synthesis; Wang resin; PyBOP/HOBt/NMM. Particulars: whole synthesis, acetate for Compounds 10 and 12 after anion exchange.
Data set [2] in a line: general procedure: Fmoc solid-phase peptide synthesis; Cl-Trt resin; PyBOP/HOBt/NMM. The note with it: whole synthesis, scale 140 umol, acetate for Compounds 10 and 12 after anion exchange.

Positions of bridges follow the written chain, without caps; N, C: chain ends. *: point of attachment. Biotin = O=C1N[C@H]2[C@H](CS[C@H]2CCCCC(=O)*)N1

Regarding Biotin-GRRLKLKVEQHVELYQKYSNNSWR-OH, in data set [1] (scale 13.8 umol), the crude mass worked out at 44.2 mg and the isolated mass is 10.3 mg.

“H-CVLLSRAELRLLRRLKLKC-OH (disulfide 1-19)” yielded an isolated mass in data set [2] of 12.2 mg.

For the substance H-LKLKVEQHVELYQKYSNNSWR-OH, in data set [1] (scale 23 umol), the crude mass turned out to be 20.9 mg and the isolated mass is reported as 7.8 mg.

In data set [1] (scale 62.5 umol), H-LQSSRHRRALDTNYSFSSTEKNC-OH returned a crude mass of 145 mg and an isolated mass of 25.5 mg.

In data set [1] (scale 23 umol), H-LSTCKTIDMELVKRKR-OH came in with a crude mass of 59.8 mg and an isolated mass of 7.7 mg.

As for H-LSTSKTIDMELV-OH, in data set [1] (scale 25.0 umol), the crude mass is given as 49.0 mg and the isolated mass is listed as 20.2 mg.

Regarding H-LSTSKTIDMELVKR-OH, in data set [1] (scale 25.0 umol), the crude mass was found to be 18.3 mg and the isolated mass came out at 4.7 mg.

In data set [1] (scale 25.0 umol), H-LSTSKTIDMELVKRKRI-OH yielded an isolated mass of 26.7 mg.

In data set [1] (scale 33 umol), H-LSTSKTIDMELVKRKRIEAIRG-OH yielded a crude mass of 115.3 mg and an isolated mass of 63.3 mg.

Take H-LSTSKTIDMELVKRKRIEAIRGC-OH: in data set [1] (scale 33 umol), the crude mass came out at 103.2 mg and the isolated mass was determined as 25.4 mg.

As for H-LVKRKRIEAIRG-OH, in data set [1] (scale 25.0 umol), the crude mass stood at 48.7 mg and the isolated mass turned out to be 35.5 mg.

In data set [1] (scale 100 umol), H-PVLLSRAELRLLRRLKLKVEQHVC-OH came in with a crude mass of 320 mg and an isolated mass of 26.4 mg.

On to H-TIDMELVKRKRIEAIRG-OH, for which, in data set [1] (scale 25 umol), the crude mass worked out at 58.3 mg and the isolated mass worked out at 22.6 mg.
